Data: patent US11051513B2, “Pyridone compounds and agricultural and horticultural fungicides containing the same as active ingredients” (MITSUI CHEMICALS AGRO, INC., priority 2017, dated 2021)
Some results were stated once for a whole list of compounds, not compound by compound.

What was measured:
Puccinia recondita = test: Test Example E: Brown rust on wheat; assay type: in vivo; conditions: 250 ppm sprayed (2.5 ml/pot) on wheat (Norin 61); disease development 7 to 10 days after inoculation
Magnaporthe grisea = assay type: in vivo; conditions: 250 ppm sprayed (2.5 ml/pot) on rice (Sachikaze); disease development 6 to 10 days after inoculation
[1] = tested on: Colletotrichum orbiculare; test: Test Example H: Anthracnose on cucumber; conditions: 250 ppm sprayed (2.5 ml/pot) on cucumber (Sagami Hanjiro); disease development 6 to 10 days after inoculation
[2] = tested on: Blumeria graminis f. sp. hordei; test: Test Example D: Powdery mildew on barley; conditions: 250 ppm sprayed (2.5 ml/pot) on barley (Akashinriki); disease development 6 to 10 days after inoculation
Alternaia brassicicola = test: Test Example C: Alternaria sooty spot on cabbage; conditions: 250 ppm sprayed (2.5 ml/pot) on cabbage (Shikidori); disease development 2 to 3 days after inoculation
Botrytis cinerea = test: Test Example B: Gray mold on tomato; conditions: 250 ppm sprayed (2.5 ml/pot) on tomato (Oogata Fukuju); disease development 2 to 3 days after inoculation

Measured: control value

CCn1c(-c2ccc(F)cc2)c(-c2cc(F)ccc2Cl)cc(Br)c1=O [compound 7]
> 50%: Puccinia recondita | Magnaporthe grisea | [1] | [2] | Alternaia brassicicola | Botrytis cinerea

CCn1c(-c2ccc(F)cc2)c(-c2c(F)cccc2F)cc(Cl)c1=O [compound 281]
> 50%: Puccinia recondita | Magnaporthe grisea | [1] | [2] | Alternaia brassicicola | Botrytis cinerea

O=c1ccc(-c2cc(F)ccc2Br)c(-c2ccccc2)n1CC(F)F [compound 496]
> 50%: Puccinia recondita | Magnaporthe grisea | [1] | [2] | Alternaia brassicicola | Botrytis cinerea

Cn1c(-c2ccc(F)cc2)c(-c2cc(F)cc(F)c2Cl)ccc1=O [compound 24]
> 50%: Puccinia recondita | Magnaporthe grisea | [1] | [2] | Alternaia brassicicola | Botrytis cinerea

CCn1c(-c2ccccc2)c(-c2cc(F)cc(F)c2Br)cc(Br)c1=O [compound 429]
> 50%: Puccinia recondita | Magnaporthe grisea | [1] | [2] | Alternaia brassicicola | Botrytis cinerea

CCn1c(-c2ccc(OC)cc2)c(-c2cc(F)cc(F)c2Cl)cc(Cl)c1=O [compound 35]
> 50%: Puccinia recondita | Magnaporthe grisea | [1] | [2] | Alternaia brassicicola | Botrytis cinerea

CCn1c(-c2ccccc2)c(-c2cc(F)cc(F)c2Cl)cc(Br)c1=O [compound 18]
> 50%: Puccinia recondita | Magnaporthe grisea | [1] | [2] | Alternaia brassicicola | Botrytis cinerea

CCn1c(-c2ccc(F)cc2)c(-c2cccc(F)c2Cl)cc(Br)c1=O [compound 57]
> 50%: Puccinia recondita | Magnaporthe grisea | [1] | [2] | Alternaia brassicicola | Botrytis cinerea

CCn1c(-c2ccc(OC)cc2)c(-c2cc(F)cc(F)c2Br)cc(Cl)c1=O [compound 256]
> 50%: Puccinia recondita | Magnaporthe grisea | [1] | [2] | Alternaia brassicicola | Botrytis cinerea

CCn1c(-c2ccccc2)c(-c2cc(F)cc(F)c2Cl)cc(Cl)c1=O [compound 17]
> 50%: Puccinia recondita | Magnaporthe grisea | [1] | [2] | Alternaia brassicicola | Botrytis cinerea

Cc1ccccc1-c1cc(Cl)c(=O)n(CC(F)F)c1-c1ccc(F)cc1 [compound 528]
> 50%: Puccinia recondita | Magnaporthe grisea | [1] | [2] | Alternaia brassicicola | Botrytis cinerea

CCn1c(-c2ccc(C#N)cc2)c(-c2ccccc2Cl)cc(C)c1=O [compound 342]
> 50%: Puccinia recondita | Magnaporthe grisea | [1] | [2] | Alternaia brassicicola | Botrytis cinerea

O=c1c(Br)cc(-c2ccccc2Cl)c(-c2ccccc2)n1CC(F)F [compound 491]
> 50%: Puccinia recondita | Magnaporthe grisea | [1] | [2] | Alternaia brassicicola | Botrytis cinerea

CCn1c(-c2ccc(OC)cc2)c(-c2cccc(F)c2Cl)ccc1=O [compound 54]
> 50%: Puccinia recondita | Magnaporthe grisea | [1] | [2] | Alternaia brassicicola | Botrytis cinerea

CCn1c(-c2ccc(F)cc2)c(-c2ccc(Cl)cc2Cl)cc(Cl)c1=O [compound 360]
> 50%: Puccinia recondita | Magnaporthe grisea | [1] | [2] | Alternaia brassicicola | Botrytis cinerea

CCn1c(-c2ccc(C#N)cc2)c(-c2ccccc2Cl)cc(Cl)c1=O [compound 333]
> 50%: Puccinia recondita | Magnaporthe grisea | [1] | [2] | Alternaia brassicicola | Botrytis cinerea

N#Cc1ccc(-c2c(-c3ccccc3Cl)ccc(=O)n2CC(F)F)cc1 [compound 337]
> 50%: Puccinia recondita | Magnaporthe grisea | [1] | [2] | Alternaia brassicicola | Botrytis cinerea

CCn1c(-c2ccc(F)cc2)c(-c2cc(OCCOC)ccc2Cl)cc(Cl)c1=O [compound 246]
> 50%: Puccinia recondita | Magnaporthe grisea | [1] | [2] | Alternaia brassicicola | Botrytis cinerea

CCn1c(-c2ccc(OCCOC)cc2)c(-c2cc(F)cc(F)c2Cl)cc(Cl)c1=O [compound 229]
> 50%: Puccinia recondita | Magnaporthe grisea | [1] | [2] | Alternaia brassicicola | Botrytis cinerea

O=c1c(Cl)cc(-c2cc(F)cc(F)c2Br)c(-c2ccccc2)n1CC(F)F [compound 431]
> 50%: Puccinia recondita | Magnaporthe grisea | [1] | [2] | Alternaia brassicicola | Botrytis cinerea

O=c1c(Br)cc(-c2cccc(F)c2Cl)c(-c2ccccc2)n1CC(F)F [compound 458]
> 50%: Puccinia recondita | Magnaporthe grisea | [1] | [2] | Alternaia brassicicola | Botrytis cinerea

O=c1c(Cl)cc(-c2cc(F)ccc2Br)c(-c2ccccc2)n1CC(F)F [compound 500]
> 50%: Puccinia recondita | Magnaporthe grisea | [1] | [2] | Alternaia brassicicola | Botrytis cinerea

CCn1c(-c2cc(F)cc(F)c2)c(-c2cc(F)ccc2Cl)ccc1=O [compound 124]
> 50%: Puccinia recondita | Magnaporthe grisea | [1] | [2] | Alternaia brassicicola | Botrytis cinerea

CCn1c(-c2ccc(F)cc2)c(-c2ccccc2F)ccc1=O [compound 274]
> 50%: Puccinia recondita | Magnaporthe grisea | [1] | [2] | Alternaia brassicicola | Botrytis cinerea

COc1ccc(-c2c(-c3cc(F)cc(F)c3Cl)cc(Cl)c(=O)n2C)cc1 [compound 38]
> 50%: Puccinia recondita | Magnaporthe grisea | [1] | [2] | Alternaia brassicicola | Botrytis cinerea

CCn1c(-c2ccc(F)cc2)c(-c2cc(OCC#N)ccc2Cl)cc(Cl)c1=O [compound 244]
> 50%: Puccinia recondita | Magnaporthe grisea | [1] | [2] | Alternaia brassicicola | Botrytis cinerea

Cc1ccc(-c2ccc(=O)n(C)c2-c2ccc(F)cc2)c(Cl)c1 [compound 391]
> 50%: Puccinia recondita | Magnaporthe grisea | [1] | [2] | Alternaia brassicicola | Botrytis cinerea

CCn1c(-c2ccccc2)c(-c2cc(F)ccc2Cl)ccc1=O [compound 78]
> 50%: Puccinia recondita | Magnaporthe grisea | [1] | [2] | Alternaia brassicicola | Botrytis cinerea

CCn1c(-c2ccc(F)cc2)c(-c2cc(F)ccc2Cl)ccc1=O [compound 5]
> 50%: Puccinia recondita | Magnaporthe grisea | [1] | [2] | Alternaia brassicicola | Botrytis cinerea

Cn1c(-c2ccc(F)cc2)c(-c2cc(F)cc(F)c2Cl)cc(Cl)c1=O [compound 25]
> 50%: Puccinia recondita | Magnaporthe grisea | [1] | [2] | Alternaia brassicicola | Botrytis cinerea

O=c1c(I)cc(-c2cc(F)ccc2Br)c(-c2ccccc2)n1CC(F)F [compound 508]
> 50%: Puccinia recondita | Magnaporthe grisea | [1] | [2] | Alternaia brassicicola | Botrytis cinerea

CCn1c(-c2ccccc2)c(-c2cc(F)cc(F)c2Br)ccc1=O [compound 427]
> 50%: Puccinia recondita | Magnaporthe grisea | [1] | [2] | Alternaia brassicicola | Botrytis cinerea

Cn1c(-c2ccccc2)c(-c2cc(F)cc(F)c2Cl)cc(Cl)c1=O [compound 21]
> 50%: Puccinia recondita | Magnaporthe grisea | [1] | [2] | Alternaia brassicicola | Botrytis cinerea
